PubChem BioAssay AID743121 – NCATS, 2013

Assay: 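Genes whose silencing strengthens cell killing by camptothecin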 (primary screen)
Cell system: MDA-MB-231 cells, a human breast cancer line
Reagent: single siRNA against human genes, 20 nM siRNA (0.8 pmol per well)
Duration: 120 h (drug added 48 h after transfection, read 72 h later)
Challenge: camptothecin 20 nM (about EC30) for 72 h; vehicle 0.1% DMSO in parallel plates
Measurement: 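CellTiter-Glo ATP signal, scaled to control siRNA as percent viability; sensitisation given as log2 of untreated divided by camptothecin-treated viability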
Reading the numbers: log2 vehicle/camptothecin viability: higher = stronger sensitisation to camptothecin
Hit rule: 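Each gene scored by redundant siRNA activity (RSA) over its individual siRNA ratios; a gene is called active at p < 0.001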
This is a random part of about 26,000 reagents. 167 of all reagents (0.63%) were called active. 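Calls are per gene from RSA p-values that are not deposited; an individual active-marked siRNA can sensitise only weakly.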 The numbers tell different reagents against one gene apart. Not all columns of the deposit are shown.

log2 vehicle/camptothecin viability, by target gene and reagent
TRAF2: #1 -0.103 inactive; #2 0.0199 inactive; #3 0.976 inactive
PSTPIP1: #1 -0.00688 inactive; #2 0.0595 inactive; #3 -0.312 inactive; #4 -0.0556 inactive
DTYMK: #1 -0.378 inactive; #2 -0.0517 inactive; #3 -0.55 inactive; #4 -0.12 inactive
IMMP2L: #1 0.363 inactive; #2 -0.125 inactive; #3 0.759 inactive
PPP1R15B: #1 -0.298 inactive; #2 0.181 inactive; #3 0.0384 inactive; #4 -0.0677 inactive
KCNK15: #1 -0.0997 inactive; #2 -0.322 inactive; #3 0.15 inactive
RABL3: #1 0.659 inactive; #2 0.169 inactive; #3 -0.207 inactive; #4 -0.0339 inactive
STARD9: #1 0.0878 inactive; #2 0.251 inactive; #3 -0.0366 inactive; #4 -0.0518 inactive
MAP4K3: #1 -0.187 inactive; #2 -0.0735 inactive; #3 0.156 inactive; #4 -0.404 inactive
FHL2: #1 -0.56 inactive; #2 -0.0105 inactive; #3 -0.844 inactive; #4 -0.182 inactive
FXN: #1 -0.117 inactive; #2 0.175 inactive; #3 0.835 inactive
SETD2: #1 -0.337 inactive; #2 0.385 inactive; #3 -0.34 inactive; #4 -0.168 inactive
FGFR3: #1 -0.179 inactive; #2 0.137 inactive; #3 0.574 inactive; #4 -0.0642 inactive
TRIM15: #1 -0.249 inactive; #2 0.423 inactive; #3 0.271 inactive; #4 -0.198 inactive
PHYH: #1 -0.108 inactive; #2 -0.261 inactive; #3 -0.285 inactive; #4 -0.174 inactive
FZD1: #1 -0.399 inactive; #2 -0.257 inactive; #3 -0.436 inactive; #4 -0.0198 inactive
CXCL6: #1 0.0517 inactive; #2 0.249 inactive; #3 -0.255 inactive; #4 -0.173 inactive
TUBA1B: #1 -0.5 inactive; #2 -0.249 inactive; #3 -0.0561 inactive; #4 -0.507 inactive
WSB1: #1 -0.105 inactive; #2 0.301 inactive; #3 -0.0492 inactive; #4 -0.233 inactive
LIPG: #1 -0.76 inactive; #2 -0.39 inactive; #3 -0.405 inactive
NEU1: #1 -0.12 inactive; #2 1.34 inactive; #3 0.148 inactive; #4 -0.287 inactive
UNKL: #1 0.128 inactive; #2 -0.312 inactive; #3 -0.124 inactive; #4 -0.179 inactive; #5 -0.0855 inactive; #6 -0.0204 inactive
SCARF1: #1 0.758 inactive; #2 -0.358 inactive; #3 -0.383 inactive
